Test results reported in publication PMC5290148.
These are yes or no findings as the source states them, for the method shown. In cells and extracts the contact can be indirect. Where a sequence is shown, tags or fusion partners need not be part of it.

Protein sequences, listed by entry. Tags and fused reporters are not part of them. Residues count along the entry.
UniProt P11021, residues 19-654: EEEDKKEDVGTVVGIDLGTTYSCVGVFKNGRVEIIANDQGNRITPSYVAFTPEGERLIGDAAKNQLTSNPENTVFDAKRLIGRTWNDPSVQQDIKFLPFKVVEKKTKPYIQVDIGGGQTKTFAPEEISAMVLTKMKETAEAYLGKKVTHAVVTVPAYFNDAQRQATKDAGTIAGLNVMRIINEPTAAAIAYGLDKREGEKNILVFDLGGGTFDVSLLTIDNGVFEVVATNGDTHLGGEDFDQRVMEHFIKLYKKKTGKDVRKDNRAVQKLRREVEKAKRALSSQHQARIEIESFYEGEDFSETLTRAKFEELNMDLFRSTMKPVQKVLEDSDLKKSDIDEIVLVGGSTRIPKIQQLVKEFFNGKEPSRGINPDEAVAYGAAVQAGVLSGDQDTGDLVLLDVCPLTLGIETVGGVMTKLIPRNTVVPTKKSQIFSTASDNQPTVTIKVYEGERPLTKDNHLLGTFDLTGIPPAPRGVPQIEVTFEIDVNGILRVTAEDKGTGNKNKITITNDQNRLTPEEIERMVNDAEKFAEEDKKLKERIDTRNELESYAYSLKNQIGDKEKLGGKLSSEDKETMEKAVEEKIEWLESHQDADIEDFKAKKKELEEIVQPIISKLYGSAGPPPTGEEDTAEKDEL

Target: T1, Flag-DDRGK1 wild-type (UniProt Q96HY6)
T1 sequence: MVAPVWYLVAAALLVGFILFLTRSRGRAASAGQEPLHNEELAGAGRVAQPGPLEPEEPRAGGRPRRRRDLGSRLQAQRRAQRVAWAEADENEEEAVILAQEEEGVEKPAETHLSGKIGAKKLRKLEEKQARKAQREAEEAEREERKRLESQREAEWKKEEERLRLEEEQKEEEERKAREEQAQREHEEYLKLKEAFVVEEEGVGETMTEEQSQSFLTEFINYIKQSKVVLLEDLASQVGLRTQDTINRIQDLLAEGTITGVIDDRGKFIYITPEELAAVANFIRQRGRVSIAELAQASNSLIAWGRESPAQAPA
Experiment: co-IP; Flag M2 affinity gel immunoprecipitates of HEK293T cells transfected with Flag-Vector, Flag-DDRGK1 WT or K267R; endogenous partners found by western blot; also in mock- or Tg-treated (2.5 μM) cells and in control and Ufm1-knockdown cells

- binding: no binding
Substance: BiP, endogenous (from UniProt P11021 19-654)
